Data reported in patent US20090068642A1, “Composition and pharmacology of novel alpha6-containing nicotinic acetylcholine receptors” (priority 2003, published 2009).
Some entries share one result that the patent states for a list of compounds. At least one compound was matched to its structure with a doubt left.

The chains behind the UniProt entries cited, without tags or fusion partners. Residues count along the entry.
UniProt P30926, 22-498: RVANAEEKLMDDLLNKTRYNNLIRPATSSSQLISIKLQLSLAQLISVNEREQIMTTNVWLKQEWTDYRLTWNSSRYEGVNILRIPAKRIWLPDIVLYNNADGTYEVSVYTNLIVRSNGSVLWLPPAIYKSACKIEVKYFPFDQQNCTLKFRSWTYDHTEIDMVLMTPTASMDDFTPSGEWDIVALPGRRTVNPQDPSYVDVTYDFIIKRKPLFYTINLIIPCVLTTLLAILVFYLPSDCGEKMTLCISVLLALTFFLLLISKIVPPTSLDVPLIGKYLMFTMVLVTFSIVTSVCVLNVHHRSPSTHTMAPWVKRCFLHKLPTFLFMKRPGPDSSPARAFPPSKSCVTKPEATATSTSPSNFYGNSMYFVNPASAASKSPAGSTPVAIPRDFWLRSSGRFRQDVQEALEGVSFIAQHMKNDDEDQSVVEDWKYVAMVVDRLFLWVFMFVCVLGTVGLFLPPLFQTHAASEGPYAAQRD
UniProt Q15825, 26-494: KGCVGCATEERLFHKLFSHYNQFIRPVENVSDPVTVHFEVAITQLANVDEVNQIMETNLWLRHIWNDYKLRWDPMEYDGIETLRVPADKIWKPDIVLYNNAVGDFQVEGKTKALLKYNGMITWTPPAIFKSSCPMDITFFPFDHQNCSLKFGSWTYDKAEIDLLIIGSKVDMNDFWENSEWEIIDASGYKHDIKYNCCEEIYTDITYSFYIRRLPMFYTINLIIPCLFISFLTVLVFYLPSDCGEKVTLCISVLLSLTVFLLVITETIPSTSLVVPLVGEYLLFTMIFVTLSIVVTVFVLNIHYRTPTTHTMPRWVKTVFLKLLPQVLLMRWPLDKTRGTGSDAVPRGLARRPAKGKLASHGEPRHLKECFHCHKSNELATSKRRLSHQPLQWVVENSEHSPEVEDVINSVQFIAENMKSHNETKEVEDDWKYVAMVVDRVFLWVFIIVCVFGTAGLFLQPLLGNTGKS

Biological target: T1, α6β3β4α5 nAChR (Homo sapiens, UniProt P30926+Q15825)
T1 construct: expressed in transfected cells; host or cells: SH-EP1 human epithelial cells
Assay: [3H]-epibatidine binding to SH-EP1 α6β3β4α5 cell membranes (saturation and competition)
Details: read-out: Ki in competition with [3H]-EPI (rank order of potency)
Procedure: Preparation of Cell Membranes for Receptor Binding. […] Combined homogenate (18 mL) was centrifuged at 40,000×g for 20 min (4° C.). The pellet was resuspended in 12 mL of ice-cold PBS and centrifuged again. The final pellet was resuspended in 10 mL of PBS.
[^3H]-Epibatidine Binding. For the saturation binding assay, 0.1 to 2.0 nM [^3H]-EPI (final concentrations; PerkinElmer Life Sciences, 56.2 Ci/mmol) was used to probe α6-comprising binding sites on the cell membranes. Competition binding assay was performed using 0.5 nM [^3H]-EPI (final concentration). […]
For 48-well plates, binding was terminated by immediate filtration onto GF/B filters (presoaked in 0.3% PEI) using a 48-sample, semi-auto harvester (Brandel, Gaithersburg, Md.), followed by washing 3 times with ice-cold buffer. […] Radioactivity was measured after 8-12 hr using a liquid scintillation analyzer (model Tri-Carb 2200CA, PerkinElmer Life Sciences Inc., Boston, Mass.). Data were expressed as disintegrations per minute (DPMs) and were converted to an absolute amount (fmoles) of bound [^3H]-EPI per mg of protein, or as a percent of control [^3H]-EPI binding (total—nonspecific). […]
Pseudo Hill slope (nH) was determined by fitting data to a sigmoidal dose-response equation (variable slope): % binding=Bottom+(Top−Bottom)/[1+10^(logIC50-X)·n], where X is the logarithm of inhibitor concentration and n is the slope. […]

With α-bungarotoxin [α-Btx] the Ki was over 10 µM.

`CNC(=O)OCC[N+](C)(C)C` [MCC, methylcarbamylcholine] gave a Ki of 0.9 to 3.5 µM.
